These are yes or no findings as the source states them, for the method shown. Some entries that bind do so weakly or less than the wild type.
Molecular target: human PA28β (human) (UniProt Q9UL46)
Assay: cryo-EM structure; PA28αβ and iCP mixed at a molar ratio of 10:1, 37 °C 30 min, cross-linked with 0.1% glutaraldehyde at 4 °C for 2 h, glycerol gradient; single-capped (4.1 Å) and double-capped (4.2 Å) complexes and free iCP (3.3 Å) from one data set; both purified

By UniProt entry, the sequences of proteins in these tests, tags left out.
UniProt Q9UL46: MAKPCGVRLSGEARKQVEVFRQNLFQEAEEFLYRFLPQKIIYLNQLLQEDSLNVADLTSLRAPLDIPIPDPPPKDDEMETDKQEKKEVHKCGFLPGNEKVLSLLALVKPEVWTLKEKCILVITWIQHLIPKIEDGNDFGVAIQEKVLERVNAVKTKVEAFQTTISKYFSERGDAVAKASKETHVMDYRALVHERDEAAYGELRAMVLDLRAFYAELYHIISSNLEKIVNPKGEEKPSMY
UniProt Q06323: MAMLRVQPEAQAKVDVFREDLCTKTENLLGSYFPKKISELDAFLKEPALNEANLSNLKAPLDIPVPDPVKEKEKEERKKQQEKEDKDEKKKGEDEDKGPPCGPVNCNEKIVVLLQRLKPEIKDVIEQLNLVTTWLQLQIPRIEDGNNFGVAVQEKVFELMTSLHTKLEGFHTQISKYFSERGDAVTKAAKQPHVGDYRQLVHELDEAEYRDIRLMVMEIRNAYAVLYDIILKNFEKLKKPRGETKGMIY

binding: binds
Substance: human PA28α (from UniProt Q06323 1-249)
